{"source": "patent US20230149554A1", "about": "“TARGETED DEGRADATION OF THE ONCOGENIC MICRORNA 17-92 CLUSTER BY STRUCTURE-TARGETING LIGANDS” (University of Florida Research Foundation, Incorporated, priority 2020, published 2023)", "assay": "Cellular localization by confocal microscopy", "format": "cell-based, human", "conditions": "5 μM, 24 h, fluorescence microscopy", "note": "“Also recorded” adds a separate entry of the source.", "data": [{"smiles": "CCCN(CC(=O)N(CCC)CC(=O)N(CCC)CC(=O)N(CC(=O)NCCOCCOCCOCCOc1ccc(/C=C2\\SC(Nc3ccccc3)=C(C(=O)OCC)C2=O)cc1O)Cc1cn(CCCNC(=O)CCCOc2c(C(C)(C)C)cc(-c3nc4cc(-c5ccc(N6CCN(C)CC6)cc5)ccc4[nH]3)cc2C(C)(C)C)nn1)C(=O)CN(Cc1cn(CCCNC(=O)CCCOc2c(C(C)(C)C)cc(-c3nc4cc(-c5ccc(N6CCN(C)CC6)cc5)ccc4[nH]3)cc2C(C)(C)C)nn1)C(C)=O", "note": "[Compound 7]", "values": [{"measurement": "cellular localization", "value": "dispersed throughout the cell; also recorded: reside primarily in the cytoplasm"}]}]}
